Some of the results follow. The main result of the screen is listed elsewhere. These columns were measured beside it and carry no call. Most of these compounds were active or inconclusive in the main read-out, so they are no random draw. Words in brackets tell the shape of the fitted curve; partial curves, single points and poor fits give uncertain potencies.
Test: qHTS Assay to Find Inhibitors of Chronic Active B-Cell Receptor Signaling
Settings: ABC-DLBCL IkBa-CBG/CBR reporter, luminescence ratio (green luciferase fused to IkBa over red control in TMD8 lymphoma cells), 4 h
Procedure, shortened: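 TMD8 human ABC-DLBCL cells with doxycycline-inducible IκBα–green luciferase fusion and unfused red luciferase, in 0.5% FBS medium; compounds up to 46 uM, 4 h at 37C. Green/red luminescence ratio, filter-overlap corrected, fitted to concentration-response curves.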

[1] = measured here: CBR red luminescence, cell number
[2] = measured here: IkBa-CBG green luminescence

Row | Structure (SMILES) | AC50 [1] | AC50 [2]
1 | CSc1nc(N(C)NC(=O)c2ccc(F)cc2)c2ccccc2n1 | 23.1 µM [rising, single point] | 18.4 µM [falling, single point]
2 | CC(C)c1cc(C(=O)OCC(=O)NC(=O)NCc2ccco2)c(O)c(C(C)C)c1 | 15.8 µM [falling, single point] | 
3 | N#Cc1c(Nc2ccccc2)sc(C(=O)C2CC2)c1N | 8.2 µM [rising, partial curve] | 
4 | C/C(CC(=O)NCc1ccccc1Cl)=N/NC(=O)c1ccccn1 | 12.6 µM [falling, partial curve] | 
5 | CCOC(=O)CNC(=O)C1Cc2ccccc2CN1S(=O)(=O)c1cccs1 (centres undefined) | 20 µM [rising, partial curve, poor fit] | 
6 | Clc1ccc2c(c1)nc1n2CCCC1 | 35.5 µM [rising, single point] | 
7 | CCC1(O)CC(C(=O)OC)=NN1C(=O)c1ccccc1 (centres undefined) | 3.66 µM [falling, partial curve, poor fit] | 
8 | Cc1oc(-c2ccccc2Cl)[n+]([O-])c1C | 2.06 µM [rising, full curve, poor fit] | 
9 | CSc1ccc(CCNC(=O)c2ccc(CS(=O)Cc3ccc(Cl)cc3)o2)cc1 (centres undefined) | 20 µM [falling, single point] | 
10 | COc1cc(C(C#N)N2CCC(c3ccccc3)=N2)ccc1O (centres undefined) | 6.31 µM [rising, partial curve, poor fit] | 
11 | Cc1[nH]n(-c2ccccc2)c(=O)c1/C=N/NC(=O)c1cccc([N+](=O)[O-])c1 | 0.631 µM [falling, partial curve, poor fit] | 
12 | COCc1cc(=O)[nH]c(Nc2nc(C)c3ccccc3n2)n1 | 4.61 µM [falling, full curve] | 
13 | CC1=NNC(=O)C1CCC(=O)N/N=C(\C)c1ccccc1 (centres undefined) | 35.5 µM [falling, single point] | 
14 | CCOCc1nnc(NC(=O)c2cc(Cl)ccc2OC)s1 | 0.82 µM [rising, full curve] | 
15 | Cc1csc(NC(=O)c2cccs2)n1 | 11.6 µM [falling, partial curve] | 7.31 µM [rising, partial curve, poor fit]
16 | COc1ccc(NC(=O)Nc2c(C)noc2-c2ccccc2)cc1 | 31.6 µM [rising, single point] | 
17 | O=C(O)c1cccc(NC(=S)NC(=O)c2ccncc2)c1 | 11.2 µM [falling, partial curve, poor fit] | 
18 | CCCc1nc(NC(C)=O)c(C#N)c(-c2ccco2)c1CC | 3.16 µM [falling, full curve, poor fit] | 
19 | COCCn1c(SCC(=O)Nc2ccc(OC)c(S(N)(=O)=O)c2)nc2ccccc21 | 5.01 µM [falling, full curve, poor fit] | 
20 | COc1ccccc1CNC(=O)C(=O)c1cn(CC(=O)N2CCCC2)c2ccccc12 | 1.26 µM [falling, full curve] | 
21 | COc1ccc(OC)c(NC(=O)COC(=O)c2n[nH]c3ccccc23)c1 | 8.2 µM [falling, partial curve] | 

Row | Structure (SMILES) | AC50 [1] | AC50 [2]
22 | Cn1nc(C(F)(F)F)c(-c2cccc(C(F)(F)F)c2)c1NC(=O)Nc1ccc(F)cc1 | 17.8 µM [rising, single point] | 
23 | COCc1nnc(NC(=O)C(C)C)s1 | 4.11 µM [rising, full curve, poor fit] | 
24 | O=C(Nc1ccc2c3c(cccc13)CC2)c1cccc([N+](=O)[O-])c1 | 18.4 µM [rising, partial curve] | 
25 | COc1ccccc1CNC(=O)COC(=O)c1cccc(-n2cnnn2)c1 | 0.517 µM [rising, full curve, poor fit] | 
26 | Cc1ccc(N2C(=O)CS(=O)C(c3ccccc3)C2=O)cc1C (centres undefined) | 14.1 µM [falling, single point] | 
27 | CCOc1cc(-c2noc(CCC(=O)Nc3cccnc3)n2)ccc1OC | 35.5 µM [falling, single point] | 
28 | Cc1ccc(S(=O)(=O)N2CCN(C(=O)CSC3CCCC3)CC2)c(C)c1 | 6.51 µM [rising, single point] | 4.11 µM [falling, partial curve, poor fit]
29 | C/C(=N\NS(C)(=O)=O)c1ccc(C)cc1 | 0.731 µM [rising, full curve, poor fit] | 
30 | COc1ccc(S(=O)(=O)Nc2cccc(-c3ccc(N4CCCCCC4)nn3)c2)c(OC)c1 | 7.94 µM [rising, partial curve] | 
31 | COc1ccc(CC(=O)NNc2ncnc3c2cnn3-c2ccc(C)cc2)cc1 | 18.4 µM [falling, single point] | 
32 | O=C(COC(=O)c1cc([N+](=O)[O-])ccc1NCc1ccccc1)NCc1ccccc1Cl | 10.3 µM [rising, partial curve, poor fit] | 
33 | O=C(CN1CCN(Cc2ccc(F)cc2)C1=O)NC1CCCC1 | 2.82 µM [rising, partial curve, poor fit] | 
34 | COCC(=O)Nc1nnc(CCc2ccccc2)s1 | 3.16 µM [rising, full curve] | 
35 | Cc1ccc2c(c1)CCCN2C(=O)c1cc2ccccc2oc1=O | 8.2 µM [rising, partial curve, poor fit] | 
36 | Cc1cc(C)c2nc(NC(=O)c3ccc([N+](=O)[O-])o3)sc2c1 | 2.82 µM [falling, partial curve, poor fit] | 
37 | CCOC(=O)Cn1nnnc1C(CC)N(Cc1cccs1)Cc1cc2ccc(OC)cc2[nH]c1=O (centres undefined) | 14.1 µM [falling, single point] | 
38 | Cc1ccc(CN2C(=O)C3CCCN3c3ncccc32)cc1 (centres undefined) | 35.5 µM [rising, single point] | 
39 | CCOC(=O)Cn1c(=O)n(Cc2ccco2)c(=O)c2ccc(C(=O)NCCc3ccccc3)cc21 | 3.16 µM [rising, single point] | 
40 | Cc1cccc(/N=C/c2sc3ccccc3c2O)n1 | 4.47 µM [falling, partial curve, poor fit] | 
41 | CCC(O)CNc1nc(SC)nc2sc3c(c12)CCN(C)C3 (centres undefined) | 15.8 µM [falling, single point] | 

Ordered by molar mass (ascending): part of the list above.
Row | Structure (SMILES) | AC50 [1] | AC50 [2]
7 | CCC1(O)CC(C(=O)OC)=NN1C(=O)c1ccccc1 (centres undefined) | 3.66 µM [falling, partial curve, poor fit] | 
33 | O=C(CN1CCN(Cc2ccc(F)cc2)C1=O)NC1CCCC1 | 2.82 µM [rising, partial curve, poor fit] | 
21 | COc1ccc(OC)c(NC(=O)COC(=O)c2n[nH]c3ccccc23)c1 | 8.2 µM [falling, partial curve] | 

Reference: PubChem BioAssay AID493014 (National Center for Advancing Translational Sciences (NCATS), 2011)
